# Results reported in PubChem BioAssay AID1671190 (National Center for Advancing Translational Sciences (NCATS), 2021).
# By UniProt entry, the sequences of proteins in these tests, tags left out. Where a name states a change or a piece, a line headed by the entry shows the natural chain unless it says otherwise.
# UniProt P18054: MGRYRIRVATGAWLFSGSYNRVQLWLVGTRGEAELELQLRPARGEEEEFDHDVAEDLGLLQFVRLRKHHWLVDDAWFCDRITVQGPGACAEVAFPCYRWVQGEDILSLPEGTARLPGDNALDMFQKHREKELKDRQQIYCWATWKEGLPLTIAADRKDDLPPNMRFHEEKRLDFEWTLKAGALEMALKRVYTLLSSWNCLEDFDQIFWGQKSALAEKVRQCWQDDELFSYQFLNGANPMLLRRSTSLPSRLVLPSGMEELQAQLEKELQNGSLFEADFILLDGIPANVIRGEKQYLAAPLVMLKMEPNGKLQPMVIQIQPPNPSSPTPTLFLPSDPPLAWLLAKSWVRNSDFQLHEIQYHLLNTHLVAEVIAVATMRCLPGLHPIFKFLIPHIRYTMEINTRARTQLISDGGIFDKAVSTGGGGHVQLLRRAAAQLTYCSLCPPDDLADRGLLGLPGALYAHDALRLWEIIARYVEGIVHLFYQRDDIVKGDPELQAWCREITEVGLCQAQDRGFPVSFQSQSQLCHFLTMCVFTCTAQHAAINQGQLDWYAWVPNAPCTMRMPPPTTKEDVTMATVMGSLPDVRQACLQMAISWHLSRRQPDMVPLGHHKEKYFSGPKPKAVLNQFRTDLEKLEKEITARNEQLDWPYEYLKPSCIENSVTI
# Screen size: about 580,000 compounds; about 6,100 (1.1%) were called active. Inconclusive means that the source gave no clear call. Such entries were picked first, then a sample of the others. The call rests on the fitted dose curve; in most records, active means well fitted inhibition curve with a large enough effect; inconclusive means small, poorly fitted or top-dose-only effect, or another doubt; inactive means no such curve, though single readings can be large or run the other way. Where the call is inconclusive, the potency comes from a doubtful curve fit.
# Target: Polyunsaturated fatty acid lipoxygenase ALOX12 (Homo sapiens) (UniProt P18054)
# Assay: Primary qHTS assay for inhibitors of human arachidonate 12S-lipoxygenase (ALOX12): Round 2
# Settings: purified 12hLO, xylenol orange hydroperoxide absorbance; activity change, negative = inhibition: at 108 µM (top of the series) unless noted
# Method in brief: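 Hydroperoxide product was detected by ferrous iron/xylenol orange as the 573 to 405 nm absorbance ratio. Arachidonic acid at 40 uM (final) was turned over for 30 min at room temperature by 150 nM human 12hLO, pH 7.0 Hepes buffer, after 15 min compound preincubation.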
# On the % scale 0 is the no-effect control and ±100 the full control effect; potency means the concentration at half of the fitted maximal effect.
SMILES,Potency,"activity change, negative = inhibition"
CCOC(=O)N1CCN(CCC(=O)c2ccc(Br)cc2)CC1,"inconclusive: 70.8 µM [inhibitor, partial curve, poor fit]",
O=C(C1CCCN(S(=O)(=O)c2cccc3nonc23)C1)N1CCN(c2cccc(C(F)(F)F)c2)CC1 (stereo not given),"inconclusive: 100 µM [inhibitor, partial curve, poor fit]",
COc1ccc(CN2CCN(c3ccnc(C)n3)CC2CCO)c(C)c1C (stereo not given),"inconclusive: 31.6 µM [inhibitor, partial curve]",
O=C(/C=C/Nc1ccc(Br)cn1)c1cccc(OC(F)F)c1,"inconclusive: 112 µM [inhibitor, single point]",
CN(Cc1ccccc1)Cc1cc(C[C@@H]2C[C@H](NC(=O)C3CCC3)C2(C)C)no1,"inconclusive: 44.7 µM [inhibitor, full curve]",
N#Cc1ccc(CN2CCc3cc(S(=O)(=O)N4CCCCC4)ccc32)c(F)c1,,inactive: 5.09%
CNC(=O)c1noc2c1CN(CC1(O)CNCCOC1)CC2 (stereo not given),"inconclusive: 17.8 µM [inhibitor, single point]",
O=C(O)COc1ccc(/C=C/C(=O)c2ccc(C3CCCCC3)cc2)cc1,,inactive: -23.5%
COc1ccc(-n2cc3c(c2-c2ccccc2F)c(=O)n(C)c(=O)n3C)cc1,"inconclusive: 50.1 µM [inhibitor, partial curve, poor fit]",
CN(CCO)C(C(=O)Nc1ccc(F)cc1)c1ccccc1 (stereo not given),,inactive: -22.1%
Cc1ccc(Cl)cc1N1CCN(C(=O)CN(C)c2nnc(N3CCCC3=O)s2)CC1,,inactive: -24.6%
Oc1c(Cl)cc(Cl)cc1C=Nc1cccc(C(F)(F)F)c1,"inconclusive: 39.8 µM [inhibitor, partial curve, poor fit]",
Cc1cc(C)cc(NS(=O)(=O)CCCS(=O)(=O)Nc2cc(C)cc(C)c2)c1,,inactive: -21.9%
CN(C)c1ccc(CN2CCn3c(nn(-c4ccc([N+](=O)[O-])cc4)c3=O)C2)cc1,,inactive: 30.4%
COc1ccc2cc(C#N)c(N3CCOCC3)nc2c1,"inconclusive: 39.8 µM [inhibitor, partial curve, poor fit]",
O=C(c1ccccc1)N1CCC(N2Cc3ccccc3C2=O)CC1,,inactive: 2.93% [at 6.33 µM]
COc1ccc(NC(=O)CN2C(=O)NC3(CCCCCCC3)C2=O)cc1,,inactive: 0.842%
CC(Cc1ccco1)NC(=O)CCC1CCCO1 (stereo not given),"inconclusive: 0.112 µM [inhibitor, full curve, poor fit]",
CCOC(=O)c1cc(-c2ccc(OC)cc2)nn1-c1ccccc1C(=O)O,"inconclusive: 63.1 µM [inhibitor, partial curve, poor fit]",
Oc1c(Br)cc(Br)cc1C=Nc1cccnc1,"inconclusive: 35.5 µM [inhibitor, partial curve, poor fit]",
COc1cccc(/C=N/NC(=S)NCc2ccco2)c1OC,"inconclusive: 31.6 µM [inhibitor, partial curve, poor fit]",
O=S(=O)(NCC1CCN(c2ccc(S(=O)(=O)N3CCOCC3)cc2)CC1)c1ccc(F)cc1,"inconclusive: 1.12 µM [inhibitor, full curve, poor fit]",
Cc1ccc(NC(=O)CNCc2ccccc2Cl)cc1S(=O)(=O)N(C)C,"inconclusive: 0.398 µM [inhibitor, full curve, poor fit]",
CC1=C(c2ccc(C)c(C)c2)S(=O)(=O)N(CC(=O)NCc2ccc3c(c2)OCO3)C1=O,"inconclusive: 50.1 µM [inhibitor, partial curve, poor fit]",

SMILES,Potency,"activity change, negative = inhibition"
Cc1ccc(-n2nnnc2SCC(=O)N2CCc3ccccc3C2)cc1,,inactive: 23.1%
Cc1cc(=O)n(Cc2ccco2)c(=S)[nH]1,"inconclusive: 50.1 µM [inhibitor, partial curve, poor fit]",
CCC(CO)Oc1cc(NC(=O)Cc2ccccc2)c2ncn(C(C)C)c2c1 (stereo not given),,inactive: 9.65%
CCn1ncc(N2CCC(NC(=O)C(C)C)CC2)cc1=O,,inactive: 46.4%
Cc1ccc2c(c1)C(CS(=O)(=O)NCC(C)C)NC2 (stereo not given),"inconclusive: 31.6 µM [inhibitor, single point]",
O=C(Nc1ccc2c(c1)OCCO2)C(c1ccccc1F)n1c(=O)c(-c2ccco2)nc2ccccc21 (stereo not given),"inconclusive: 50.1 µM [inhibitor, partial curve, poor fit]",
CCN(Cc1ccccc1)S(=O)(=O)c1ccc(C(=O)N(CCCN(C)C)c2nc3cc4c(cc3s2)OCO4)cc1,"inconclusive: 44.7 µM [inhibitor, partial curve, poor fit]",
Cn1c(NC(=O)c2cc(Cl)ccc2Cl)cc(=O)n(C)c1=O,,inactive: -1.18%
CCOC(=O)c1ccc(N2CCN(c3ccc(F)cc3)CC2)c(NC(=O)Nc2ccc(CC)cc2)c1,,inactive: -17.8%
CC(=O)N1CCn2c3c(c4cc(C)ccc42)CCCC31 (stereo not given),,inactive: -12.4%
Cc1cc(C(=O)CCl)c(C)n1CCc1ccc(Cl)cc1,"inconclusive: 79.4 µM [inhibitor, partial curve, poor fit]",
Cc1ccc(/C=[N+](\[O-])c2ccccc2C)cc1,"inconclusive: 70.8 µM [inhibitor, partial curve, poor fit]",
OC1CCN(Cc2cccc3ccccc23)CC1,"inconclusive: 1.12 µM [inhibitor, full curve, poor fit]",
CC1CC(C)CN(C(=O)CNC(=O)c2ccc3ccccc3c2)C1 (stereo not given),,inactive: 7.51%
CCc1ccc2c(c1)c1nc(C)sc1n2CC,"inconclusive: 89.1 µM [inhibitor, single point]",
Cc1nc([N+](=O)[O-])c(Br)n1CC(=O)c1ccccc1,"inconclusive: 11.2 µM [inhibitor, full curve, poor fit]",
Cc1ccc2nc(-c3ccc(SCC(=O)Nc4ccc5c(c4)OCCO5)nc3)[nH]c2c1,,inactive: 11.1%
CC(C)(C)OC(=O)N1CCC(c2c(C(=O)NCc3ccccc3)cnn2-c2ccc(F)cc2)CC1,,inactive: -11.4%
Cc1cnc(=O)[nH]c1SCc1ccc([N+](=O)[O-])cc1,,inactive: -7.74%
Cc1cc(O)c(Oc2cc(C)cc(O)c2O)c(O)c1,"inconclusive: 4.47 µM [inhibitor, full curve, poor fit]",
Cc1cc(C(=O)Nc2cccc(-c3ccc(N4CCOCC4)nn3)c2)ccc1[N+](=O)[O-],,inactive: -8.54%
CC(Oc1ccccc1)C(=O)N1CCN=C1SCc1ccccc1F (stereo not given),,inactive: -3.15%
CC(C)C(C(=O)NC1CCCCC1)N1C(=O)C(=O)c2ccccc21 (stereo not given),"inconclusive: 39.8 µM [inhibitor, partial curve, poor fit]",
Cc1cc(O)c(C(=O)/C=C/c2ccccc2)c(=O)o1,"inconclusive: 35.5 µM [inhibitor, partial curve, poor fit]",

SMILES,Potency,"activity change, negative = inhibition"
COc1ccc(CN(C)C(=O)[C@H]2O[C@@H](n3cnc4c(N)ncnc43)[C@H](O)[C@@H]2O)cc1OC,"inconclusive: 35.5 µM [inhibitor, single point]",
Fc1ccccc1COc1ccc(/C=N/NC(=S)NCc2ccccc2)cc1,"inconclusive: 39.8 µM [inhibitor, partial curve, poor fit]",
CC(=O)Nc1cc(-c2ccc(=O)n(CC(=O)Nc3c(C)cc(C)cc3C)n2)ccc1C,,inactive: -24.5%
O=S(=O)(c1ccccc1C(F)(F)F)N1CC(c2nc(Cc3ccccc3)no2)C1,,inactive: 26.3%
CCCCN1C(=O)N(c2ccc(Br)cc2)C(=O)C1c1nnnn1-c1c(C)cccc1Cl (stereo not given),"inconclusive: 15.8 µM [inhibitor, partial curve, poor fit]",
CC[n+]1c(/C=C(\C)OC)sc2ccccc21,"inconclusive: 15.8 µM [inhibitor, partial curve]",
O=C(/C=C/c1ccccc1Cl)Nc1cccc(O)c1,,inactive: -5.12%
CC1(C(=O)NS(=O)(=O)c2cccc(F)c2)CCN1C(=O)Cc1cccs1 (stereo not given),"inconclusive: 31.6 µM [inhibitor, partial curve, poor fit]",
COC(=O)C[C@H]1C=C[C@@H](NS(=O)(=O)c2ccc(C)cc2)[C@@H](CO)O1,,inactive: 5.66%
O=C(NNC(=O)C1CCCCC1)c1cnccn1,,inactive: 1.53%
COc1ccc(CCNc2oc(COc3cccc(C)c3)nc2C#N)cc1OC,"inconclusive: 100 µM [inhibitor, partial curve, poor fit]",
CN1C(=O)CN(CCCCOc2ccccc2)C(=O)c2ccccc21,,inactive: -0.163%
Cn1cc(C(c2ccccn2)c2cn(C)c3ccccc23)c2ccccc21,"inconclusive: 22.4 µM [inhibitor, full curve, poor fit]",
C/C(N)=C(/C#N)C(=O)CSc1nnnn1-c1ccc(C)cc1C,"inconclusive: 50.1 µM [inhibitor, partial curve, poor fit]",
CN(CC(=O)Nc1cccc(C(F)(F)F)c1)C1CCc2ccccc21 (stereo not given),,inactive: -43.7%
CCNC(=O)C1(C)CCN(Cc2ccccc2-c2ccccc2)C1 (stereo not given),,inactive: -7.19%
CCOC(=O)Cn1c(S(=O)(=O)Cc2ccc(Cl)cc2)nc(-c2ccccc2)c1-c1ccccc1,,inactive: 7.78%
O=C(Oc1ccc2c(-c3cc4cc(Br)ccc4oc3=O)cc(=O)oc2c1)N1CCOCC1,"inconclusive: 56.2 µM [inhibitor, partial curve, poor fit]",
COC(=O)c1cc2c(ccn2-c2ccc(F)cc2)n1C(C)C,"inconclusive: 112 µM [inhibitor, single point]",
COc1cccc(C2CC(=O)Nc3nc(N)sc32)c1OCc1ccc(F)cc1 (stereo not given),active: 2 µM,
Cn1c(C(=O)Nc2ccc3c(c2)OCO3)cc2sccc21,"inconclusive: 79.4 µM [inhibitor, partial curve, poor fit]",
O=C(CC(Sc1n[nH]c(-c2ccc(F)cc2)n1)c1ccc(F)cc1)NCc1cccnc1 (stereo not given),"inconclusive: 31.6 µM [inhibitor, partial curve, poor fit]",

# Entries listed so far containing a thiophene ring, fused or not (2):
SMILES,Potency,"activity change, negative = inhibition"
CC1(C(=O)NS(=O)(=O)c2cccc(F)c2)CCN1C(=O)Cc1cccs1 (stereo not given),"inconclusive: 31.6 µM [inhibitor, partial curve, poor fit]",
Cn1c(C(=O)Nc2ccc3c(c2)OCO3)cc2sccc21,"inconclusive: 79.4 µM [inhibitor, partial curve, poor fit]",
